From PubChem BioAssay (NCI)
This list holds what a sample rich in hits left over. The source made the active and inactive calls. No stated cut-off is given here; in the data, active means growth inhibition above about 70%; inactive means the rest.

How the values were obtained:
[1] = NCI Yeast Anticancer Drug Screen. Data for the rad52 strain (AID 147);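 further: 0% = growth of vehicle-treated control cultures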; settings: S. cerevisiae rad52 mutant growth inhibition, active compounds read high
Method in brief: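 Inhibition of yeast growth, referenced to vehicle controls, was the measured output for a strain with defective DNA damage repair.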

[2] = NCI Yeast Anticancer Drug Screen. Data for the rad50EPP+ strain (AID 151);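 further: 0% = growth of vehicle-treated control cultures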; settings: S. cerevisiae rad50 mutant strain, active compounds read high
Method in brief: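 Genetically defined yeast (rad50EPP+, DNA damage repair alteration) is grown with compound, and inhibition of growth is expressed relative to vehicle-treated controls.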

[3] = NCI Yeast Anticancer Drug Screen. Data for the mgt1 strain (AID 153); settings: S. cerevisiae mgt1 mutant growth inhibition, active compounds read high
Method in brief: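 In the mgt1 strain, test compounds were added and growth inhibition was determined relative to vehicle-treated controls.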

[4] = NCI Yeast Anticancer Drug Screen. Data for the rad14 strain (AID 159);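 further: 0% = growth of vehicle-treated control cultures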; settings: S. cerevisiae rad14 strain growth inhibition, active compounds read high
Method in brief: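 Growth inhibition vs vehicle controls; genetically altered yeast strain (DNA damage repair defect) treated with test compounds.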

[5] = NCI Yeast Anticancer Drug Screen. Data for the CLN2oe strain (AID 163);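 further: 0% = growth of vehicle-only control cultures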; settings: S. cerevisiae CLN2oe strain, active compounds read high
Method in brief: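 First, the altered yeast strain was treated with each compound; second, its growth was measured; finally, inhibition was derived by comparison with vehicle controls.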

[6] = NCI Yeast Anticancer Drug Screen. Data for the wt2 strain (AID 169);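 further: 0% = growth of vehicle-treated yeast cultures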; settings: S. cerevisiae wt2 strain growth inhibition, active compounds read high
Method in brief: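 The panel's yeast strains carry defined changes in DNA repair or cell cycle genes. Each strain is grown with compound, and growth loss is scored relative to vehicle.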

[7] = NCI Yeast Anticancer Drug Screen. Data for the mlh1 strain (AID 171);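 further: 0% = growth of vehicle-treated control cultures of the same strain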; settings: S. cerevisiae mlh1 strain growth inhibition, active compounds read high
Method in brief: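 Inhibition values reflect reduced yeast growth in the presence of compound, referenced to vehicle controls, using a strain chosen for its alteration in DNA repair or cell cycle control.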

[8] = NCI Yeast Anticancer Drug Screen. Data for the sgs1 strain (AID 173);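 further: 0% = growth of vehicle-only control cultures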; settings: S. cerevisiae sgs1 mutant, active compounds read high
Method in brief: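 Vehicle-treated cultures served as reference for growth inhibition of a yeast strain altered in DNA damage repair or cell cycle control after compound exposure.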

[9] = NCI Yeast Anticancer Drug Screen. Data for the rad18 strain (AID 177); settings: S. cerevisiae rad18 mutant growth inhibition, active compounds read high
Method in brief: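 Steps: expose repair-mutant yeast to compound; measure growth; express as inhibition relative to vehicle control.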

[10] = NCI Yeast Anticancer Drug Screen. Data for the wt1 strain (AID 149);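 further: 0% = growth of vehicle-treated wt1 cultures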; settings: S. cerevisiae wt1 strain (SPY 50644) growth inhibition, active compounds read high
Method in brief: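 Growth inhibition read against vehicle controls after compound exposure of the wt1 yeast strain.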

Measured: growth inhibition

N#CC(=Nc1ccc(F)cc1)Nc1ccc(F)cc1
inactive: [1]; at 1.2 µM -1% | [1]; at 3.7 µM -2% | [1]; at 11.0 µM 0% | [1]; at 33.0 µM 6% | [1]; at 100.0 µM 2% | [2]; at 1.2 µM 9% | [2]; at 3.7 µM 18% | [2]; at 11.0 µM 28% | [2]; at 33.0 µM 33% | [2]; at 100.0 µM 23% | [3]; at 1.2 µM -4% | [3]; at 3.7 µM -4% | [3]; at 11.0 µM -3% | [3]; at 33.0 µM 4% | [3]; at 100.0 µM -5% | [4]; at 1.2 µM -4% | [4]; at 3.7 µM -3% | [4]; at 11.0 µM -6% | [4]; at 33.0 µM 11% | [4]; at 100.0 µM 8% | [5]; at 1.2 µM 2% | [5]; at 3.7 µM -3% | [5]; at 11.0 µM 3% | [5]; at 33.0 µM 12% | [5]; at 100.0 µM 12% | [6]; at 1.2 µM -2% | [6]; at 3.7 µM -2% | [6]; at 11.0 µM -4% | [6]; at 33.0 µM 1% | [6]; at 100.0 µM -2% | [7]; at 1.2 µM -1% | [7]; at 3.7 µM -6% | [7]; at 11.0 µM -5% | [7]; at 33.0 µM 1% | [7]; at 100.0 µM -1% | [8]; at 1.2 µM -4% | [8]; at 3.7 µM -5% | [8]; at 11.0 µM -5% | [8]; at 33.0 µM 18% | [8]; at 100.0 µM 7% | [9]; at 1.2 µM -3% | [9]; at 3.7 µM -7% | [9]; at 11.0 µM -8% | [9]; at 33.0 µM 1% | [9]; at 100.0 µM -2%

CSC1=NS(=O)(=O)c2cc(C(=O)NN(C)C(=O)c3cc4c(cc3Cl)SC(SC)=NS4(=O)=O)c(Cl)cc2S1
inactive: [1]; at 1.2 µM 1% | [1]; at 3.7 µM 0% | [1]; at 11.0 µM -2% | [1]; at 33.0 µM -8% | [1]; at 100.0 µM -1% | [10]; at 1.2 µM 5% | [10]; at 3.7 µM 11% | [10]; at 11.0 µM 12% | [10]; at 33.0 µM 13% | [10]; at 100.0 µM 8% | [2]; at 1.2 µM -3% | [2]; at 3.7 µM -2% | [2]; at 11.0 µM -2% | [2]; at 33.0 µM -6% | [2]; at 100.0 µM -18% | [3]; at 1.2 µM 3% | [3]; at 3.7 µM 7% | [3]; at 11.0 µM 7% | [3]; at 33.0 µM -6% | [3]; at 100.0 µM 5% | [4]; at 1.2 µM -3% | [4]; at 3.7 µM 2% | [4]; at 11.0 µM 4% | [4]; at 33.0 µM 4% | [4]; at 100.0 µM 2% | [5]; at 1.2 µM 5% | [5]; at 3.7 µM 8% | [5]; at 11.0 µM 3% | [5]; at 33.0 µM 3% | [5]; at 100.0 µM -5% | [6]; at 1.2 µM 4% | [6]; at 3.7 µM 8% | [6]; at 11.0 µM 6% | [6]; at 33.0 µM 8% | [6]; at 100.0 µM 5% | [7]; at 1.2 µM 1% | [7]; at 3.7 µM 3% | [7]; at 11.0 µM 3% | [7]; at 33.0 µM 0% | [7]; at 100.0 µM -4% | [8]; at 1.2 µM 1% | [8]; at 3.7 µM 4% | [8]; at 11.0 µM 3% | [8]; at 33.0 µM 2% | [8]; at 100.0 µM -1% | [9]; at 1.2 µM 0% | [9]; at 3.7 µM 2% | [9]; at 11.0 µM 0% | [9]; at 33.0 µM -4% | [9]; at 100.0 µM -15%

Cc1cc2c(C(C)C)c(O)c(O)c(C=Nc3ccc([N+](=O)[O-])cc3)c2c(O)c1-c1c(C)cc2c(C(C)C)c(O)c(O)c(C=Nc3ccc([N+](=O)[O-])cc3)c2c1O
inactive: [1]; at 1.2 µM -2% | [1]; at 3.7 µM -3% | [1]; at 11.0 µM -8% | [1]; at 33.0 µM -11% | [1]; at 100.0 µM -16% | [2]; at 1.2 µM 0% | [2]; at 3.7 µM -7% | [2]; at 11.0 µM -41% | [2]; at 33.0 µM -71% | [2]; at 100.0 µM -78% | [3]; at 1.2 µM -2% | [3]; at 3.7 µM -4% | [3]; at 11.0 µM -4% | [3]; at 33.0 µM 12% | [3]; at 100.0 µM -3% | [4]; at 1.2 µM -4% | [4]; at 3.7 µM -3% | [4]; at 11.0 µM -9% | [4]; at 33.0 µM -9% | [4]; at 100.0 µM -14% | [5]; at 1.2 µM 2% | [5]; at 3.7 µM -11% | [5]; at 11.0 µM -8% | [5]; at 33.0 µM -29% | [5]; at 100.0 µM -36% | [6]; at 1.2 µM -1% | [6]; at 3.7 µM -2% | [6]; at 11.0 µM 0% | [6]; at 33.0 µM 0% | [6]; at 100.0 µM 3% | [7]; at 1.2 µM -2% | [7]; at 3.7 µM -2% | [7]; at 11.0 µM -4% | [7]; at 33.0 µM -11% | [7]; at 100.0 µM -11% | [8]; at 1.2 µM 1% | [8]; at 3.7 µM 1% | [8]; at 11.0 µM -1% | [8]; at 33.0 µM -3% | [8]; at 100.0 µM -1% | [9]; at 1.2 µM 0% | [9]; at 3.7 µM -1% | [9]; at 11.0 µM -18% | [9]; at 33.0 µM -4% | [9]; at 100.0 µM -15%
